Patent publication US20230063922A1
Results are given in words; binding and its absence hold for the method and conditions named. In cells and extracts the contact can be indirect. Some results given as binding are weak or reduced against the parent protein; the word gives no strength.

Amino acid sequences for entries named in this document (tags omitted). A change or cut given only in a name is not applied to a line headed by its entry.
UniProt P62304: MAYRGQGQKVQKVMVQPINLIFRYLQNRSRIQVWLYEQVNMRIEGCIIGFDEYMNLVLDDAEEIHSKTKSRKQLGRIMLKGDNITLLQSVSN
UniProt P62318: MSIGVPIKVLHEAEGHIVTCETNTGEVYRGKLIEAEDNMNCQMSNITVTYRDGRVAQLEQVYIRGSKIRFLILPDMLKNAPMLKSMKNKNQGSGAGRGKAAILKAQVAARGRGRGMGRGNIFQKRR
UniProt P62308: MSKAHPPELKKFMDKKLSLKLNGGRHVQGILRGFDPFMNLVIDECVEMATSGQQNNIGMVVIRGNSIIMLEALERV
UniProt P62314: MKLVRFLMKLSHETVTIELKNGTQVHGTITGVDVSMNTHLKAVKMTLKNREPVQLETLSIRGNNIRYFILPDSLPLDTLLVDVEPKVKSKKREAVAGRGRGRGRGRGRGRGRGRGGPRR

What was measured:
SmB1-95-GALA3 = assay: co-expression in E. coli, co-purification through the His tag on SmD3 (HisTrap, heparin)
[1] = target: SmE (Homo sapiens (Human)) (UniProt P62304); assay: co-expression in E. coli, co-purification through the His tag on SmG
[2] = target: SmE (Homo sapiens (Human)) (UniProt P62304); assay: co-expression in E. coli, co-purification through the His tag on SmG (HisTrap, heparin)
SmD2-EGF = assay: co-expression in E. coli, co-purification through the His tag on SmD1 (HisTrap, heparin)

Question: With His-SmD3 (from UniProt P62318 2-126) as the substance, how does the binding (SmB1-95-GALA3) read?
Answer: Its binding is “binds”.

Question: Which binding [1] does the source give for SmG-His (from UniProt P62308 1-76) here?
Answer: Its binding is “binds”.

Question: And the binding [2]?
Answer: The binding was “binds”.

Question: “His-SUMO-SmD1 (from UniProt P62314 1-118)” was tested. Which binding (SmD2-EGF) did it give?
Answer: Its binding is “binds”.
